Laboratory results reported in PubChem BioAssay (EPA / NIEHS).
For some of these results: This list holds what a sample rich in hits left over. Inconclusive results are not listed. Only a part is listed here, and it is no random draw. Activity calls are given as the source filed them. Rule for the calls, unless noted: active = hit-call score of the fitted dose curve at least 0.9, where 1 is the maximum; inactive = score below 0.9.

By UniProt entry, the sequences of proteins in these tests, tags left out. Where a name states a change or a piece, a line headed by the entry shows the natural chain unless it says otherwise.
UniProt P49327, whole entry, looked up: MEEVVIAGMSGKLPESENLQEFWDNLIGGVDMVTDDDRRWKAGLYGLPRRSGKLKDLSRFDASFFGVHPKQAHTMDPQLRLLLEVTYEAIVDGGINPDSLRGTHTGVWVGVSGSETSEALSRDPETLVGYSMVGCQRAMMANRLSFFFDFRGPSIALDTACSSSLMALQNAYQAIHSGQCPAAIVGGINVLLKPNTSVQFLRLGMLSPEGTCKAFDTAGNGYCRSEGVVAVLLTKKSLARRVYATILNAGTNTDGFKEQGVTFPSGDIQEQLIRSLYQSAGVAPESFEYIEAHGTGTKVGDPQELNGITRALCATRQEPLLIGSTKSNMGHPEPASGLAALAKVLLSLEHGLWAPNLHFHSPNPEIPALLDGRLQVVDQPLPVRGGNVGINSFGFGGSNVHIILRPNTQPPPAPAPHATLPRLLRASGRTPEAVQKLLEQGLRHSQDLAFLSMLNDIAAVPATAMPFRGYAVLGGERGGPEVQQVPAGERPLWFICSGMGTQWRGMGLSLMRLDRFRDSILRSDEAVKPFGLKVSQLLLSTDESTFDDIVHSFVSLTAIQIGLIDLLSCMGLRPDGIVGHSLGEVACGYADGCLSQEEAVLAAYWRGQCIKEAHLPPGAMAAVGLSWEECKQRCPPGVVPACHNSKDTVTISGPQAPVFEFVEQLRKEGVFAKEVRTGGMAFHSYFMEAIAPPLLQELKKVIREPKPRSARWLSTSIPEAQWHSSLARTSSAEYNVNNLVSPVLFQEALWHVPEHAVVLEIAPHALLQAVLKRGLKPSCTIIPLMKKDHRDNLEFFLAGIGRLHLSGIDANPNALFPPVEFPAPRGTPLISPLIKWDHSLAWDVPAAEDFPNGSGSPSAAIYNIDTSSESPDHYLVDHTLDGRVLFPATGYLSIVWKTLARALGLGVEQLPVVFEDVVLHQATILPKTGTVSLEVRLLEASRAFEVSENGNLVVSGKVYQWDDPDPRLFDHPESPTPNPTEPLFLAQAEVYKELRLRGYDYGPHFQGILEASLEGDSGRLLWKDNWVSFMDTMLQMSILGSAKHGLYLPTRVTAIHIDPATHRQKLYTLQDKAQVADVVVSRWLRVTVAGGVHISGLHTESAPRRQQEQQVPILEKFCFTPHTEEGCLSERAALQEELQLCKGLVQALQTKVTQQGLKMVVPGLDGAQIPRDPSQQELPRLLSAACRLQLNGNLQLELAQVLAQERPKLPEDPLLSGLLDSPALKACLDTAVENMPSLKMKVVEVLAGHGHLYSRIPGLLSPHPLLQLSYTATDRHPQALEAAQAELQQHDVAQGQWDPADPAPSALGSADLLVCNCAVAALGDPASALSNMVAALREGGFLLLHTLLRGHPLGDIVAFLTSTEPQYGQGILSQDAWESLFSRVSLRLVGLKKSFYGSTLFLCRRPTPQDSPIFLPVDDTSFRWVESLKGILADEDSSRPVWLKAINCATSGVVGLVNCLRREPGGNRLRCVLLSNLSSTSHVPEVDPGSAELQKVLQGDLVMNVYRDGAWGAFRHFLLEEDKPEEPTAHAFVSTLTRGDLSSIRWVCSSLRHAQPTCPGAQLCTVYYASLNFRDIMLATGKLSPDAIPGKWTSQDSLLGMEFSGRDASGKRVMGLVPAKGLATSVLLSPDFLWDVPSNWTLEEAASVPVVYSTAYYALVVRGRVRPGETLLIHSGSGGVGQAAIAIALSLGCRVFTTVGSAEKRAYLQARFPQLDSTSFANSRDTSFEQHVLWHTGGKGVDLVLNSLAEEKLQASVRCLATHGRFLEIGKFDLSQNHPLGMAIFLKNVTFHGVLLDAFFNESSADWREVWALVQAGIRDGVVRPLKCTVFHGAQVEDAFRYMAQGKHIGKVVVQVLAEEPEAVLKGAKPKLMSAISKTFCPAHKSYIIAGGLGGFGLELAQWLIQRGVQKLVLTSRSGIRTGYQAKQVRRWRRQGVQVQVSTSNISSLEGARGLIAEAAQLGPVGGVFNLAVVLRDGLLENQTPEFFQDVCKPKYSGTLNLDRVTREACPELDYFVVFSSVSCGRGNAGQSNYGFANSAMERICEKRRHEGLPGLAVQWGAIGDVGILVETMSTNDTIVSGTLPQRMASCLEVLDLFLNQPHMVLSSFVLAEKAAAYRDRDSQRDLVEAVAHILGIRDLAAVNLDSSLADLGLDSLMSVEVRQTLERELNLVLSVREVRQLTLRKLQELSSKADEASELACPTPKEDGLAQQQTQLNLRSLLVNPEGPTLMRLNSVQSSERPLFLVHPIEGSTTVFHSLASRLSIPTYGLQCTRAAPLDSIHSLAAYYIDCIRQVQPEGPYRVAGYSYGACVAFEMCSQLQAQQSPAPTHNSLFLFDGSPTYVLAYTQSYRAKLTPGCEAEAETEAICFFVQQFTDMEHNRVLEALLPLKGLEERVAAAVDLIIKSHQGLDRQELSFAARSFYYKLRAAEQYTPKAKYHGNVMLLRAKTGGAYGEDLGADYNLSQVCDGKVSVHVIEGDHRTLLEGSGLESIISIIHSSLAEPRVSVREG
UniProt P33261, whole entry, looked up: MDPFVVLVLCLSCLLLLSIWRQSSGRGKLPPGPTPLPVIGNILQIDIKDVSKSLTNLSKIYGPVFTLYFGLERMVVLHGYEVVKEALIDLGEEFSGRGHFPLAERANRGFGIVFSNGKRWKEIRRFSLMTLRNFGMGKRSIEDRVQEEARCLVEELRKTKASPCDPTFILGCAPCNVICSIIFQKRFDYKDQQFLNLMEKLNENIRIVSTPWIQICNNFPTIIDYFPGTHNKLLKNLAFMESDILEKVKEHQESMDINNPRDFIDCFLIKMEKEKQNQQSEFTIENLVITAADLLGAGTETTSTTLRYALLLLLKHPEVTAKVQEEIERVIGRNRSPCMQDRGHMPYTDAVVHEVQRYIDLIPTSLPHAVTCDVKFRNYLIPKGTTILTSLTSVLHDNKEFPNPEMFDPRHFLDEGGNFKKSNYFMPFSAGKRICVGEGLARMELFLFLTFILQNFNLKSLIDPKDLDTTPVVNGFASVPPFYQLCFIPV
UniProt P37231: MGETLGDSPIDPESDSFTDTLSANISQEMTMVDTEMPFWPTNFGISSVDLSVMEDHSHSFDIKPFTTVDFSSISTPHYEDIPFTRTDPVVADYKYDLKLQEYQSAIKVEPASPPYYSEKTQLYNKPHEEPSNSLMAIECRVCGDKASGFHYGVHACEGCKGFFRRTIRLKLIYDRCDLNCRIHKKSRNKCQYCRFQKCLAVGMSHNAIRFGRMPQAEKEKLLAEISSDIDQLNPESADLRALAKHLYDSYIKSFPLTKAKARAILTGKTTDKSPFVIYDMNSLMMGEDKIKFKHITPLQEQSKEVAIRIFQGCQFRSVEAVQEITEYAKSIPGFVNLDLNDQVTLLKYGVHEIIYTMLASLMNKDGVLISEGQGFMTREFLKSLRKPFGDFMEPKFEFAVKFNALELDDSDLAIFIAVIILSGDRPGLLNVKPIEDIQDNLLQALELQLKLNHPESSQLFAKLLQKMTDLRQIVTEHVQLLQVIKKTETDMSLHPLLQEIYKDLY
UniProt P22680: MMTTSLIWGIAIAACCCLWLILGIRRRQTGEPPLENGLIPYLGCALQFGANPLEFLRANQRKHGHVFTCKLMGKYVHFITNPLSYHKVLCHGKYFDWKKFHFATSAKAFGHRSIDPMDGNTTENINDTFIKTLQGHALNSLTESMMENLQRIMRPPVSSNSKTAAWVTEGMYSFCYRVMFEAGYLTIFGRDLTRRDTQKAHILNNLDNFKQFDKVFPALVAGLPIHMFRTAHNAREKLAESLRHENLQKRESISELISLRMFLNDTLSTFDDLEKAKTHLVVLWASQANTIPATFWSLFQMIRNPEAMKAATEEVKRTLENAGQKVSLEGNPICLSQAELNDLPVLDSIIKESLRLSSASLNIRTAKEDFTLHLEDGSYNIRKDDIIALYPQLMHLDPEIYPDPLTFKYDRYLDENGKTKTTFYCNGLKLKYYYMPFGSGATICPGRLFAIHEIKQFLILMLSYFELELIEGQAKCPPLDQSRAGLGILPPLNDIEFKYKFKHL

Experiments:
[1] = CEETOX_H295R_11DCORT: CeeTox H295R High-throughput Steroidogenesis Assay for 11-Deoxycortisol (11DCORT) (AID 2283432); settings: actives raise or lower the signal
Outline: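 H295R cells; 10 uM forskolin prestim 48 h; compound in 0.1% DMSO 48 h; media extracted with MTBE; 11-deoxycortisol by LC-MS/MS, 7-point standard curve; gain/loss vs DMSO baseline; viability by MTT in same wells.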

[2] = read-out: Fatty acid synthase (Homo sapiens) (UniProt P49327); assay: LTEA_HepaRG_FASN: Life Technologies and Expression Analysis (LTEA) Assay for Fatty Acid Synthase (FASN) using HepaRG (AID 2283448); settings: actives raise or lower the signal; mRNA level, 48 h
Outline: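 In human HepaRG cultures, 48 h chemical exposure (up to 100 uM, 0.5% DMSO) preceded TaqMan qRT-PCR of FASN.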

[3] = read-out: Forkhead box O3 (FOXO3), FOXO3 (gene 2309); assay: LTEA_HepaRG_FOXO3: Life Technologies and Expression Analysis (LTEA) Assay for Forkhead box O3 (FOXO3) using HepaRG (AID 2283459); settings: actives raise or lower the signal; mRNA level, 48 h
Outline: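 FOXO3 transcript measured by qRT-PCR (normalized to ACTB, GAPDH, POLR2A) after 48 h exposure of HepaRG cells in serum-free induction medium. Duplicates, eight half-log concentrations up to 100 uM, 0.5% DMSO; gain or loss fitted against DMSO.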

[4] = read-out: Cytochrome P450 2C19 (Homo sapiens) (UniProt P33261); assay: LTEA_HepaRG_CYP2C19: Life Technologies and Expression Analysis (LTEA) Assay for CYP2C19 using HepaRG (AID 2283482); settings: actives raise or lower the signal; mRNA level, 48 h
Outline: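 HepaRG, 48 h chemical exposure, 8-pt half-log series from 100 uM in 0.5% DMSO, duplicates. Readout: CYP2C19 mRNA by TaqMan qRT-PCR, housekeeping-normalized. Bidirectional fit vs DMSO baseline; phenobarbital 1mM as induction control.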

[5] = read-out: NAD(P)H dehydrogenase [quinone] 1 (NQO1), NQO1 (gene 1728); assay: LTEA_HepaRG_NQO1: Life Technologies and Expression Analysis (LTEA) Assay for NAD(P)H dehydrogenase [quinone] 1 (NQO1) using HepaRG (AID 2283526); settings: actives raise or lower the signal; mRNA level, 48 h
Outline: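 In this assay, gene expression is read by qRT-PCR after 48 h exposure of HepaRG cells to eight concentrations (max 100 uM, half-log) in 0.5% DMSO. Each chemical runs in duplicate, and activity is scored relative to vehicle.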

[6] = biological target: Peroxisome proliferator-activated receptor gamma (Homo sapiens) (UniProt P37231); assay: OT_PPARg_PPARgSRC1_0480: Odyssey Thera (OT) 8-hour Protein-Complementation Assay for Peroxisome Proliferator-activated Receptor Gamma / SRC-1 Co-activator (AID 2283387; active = hit-call score of the fitted dose curve at least 0.9, where 1 is the maximum;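 note: nuclear to cytoplasmic split Venus YFP fluorescence ratio reporting PPARg SRC-1 interaction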)
Outline: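 Read-out: 488 nm N/C fluorescence ratio from complemented Venus YFP fragments, ≥350 cells per image, gain-of-signal fitted against DMSO baseline. Fusions of PPARg/SRC-1 with IFP1/IFP2 expressed transiently in HEK293T; compounds applied 8 h.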

[7] = CEETOX_H295R_OHPREG: CeeTox H295R High-throughput Steroidogenesis Assay for OH-Pregnenolone (OHPREG) (AID 2283434); settings: actives raise or lower the signal
CYP2C8 (gene 1558) = assay: LTEA_HepaRG_CYP2C8: Life Technologies and Expression Analysis (LTEA) Assay for CYP2C8 using HepaRG (AID 2283483); settings: actives raise or lower the signal; mRNA level, 48 h
Outline: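 CYP2C8 expression measured by TaqMan qRT-PCR and normalized to three housekeeping genes. HepaRG cultures were treated for 48 h with an eight-point half-log series topping at 100 uM, vehicle 0.5% DMSO, duplicates; fitted both directions against DMSO.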

[8] = read-out: Cytochrome P450 7A1 (Homo sapiens) (UniProt P22680); assay: LTEA_HepaRG_CYP7A1: Life Technologies and Expression Analysis (LTEA) Assay for Cytochrome P450 7A1 (CYP7A1) using HepaRG (AID 2283496); settings: actives raise or lower the signal; mRNA level, 48 h
Outline: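 Using 0.5% DMSO as vehicle and baseline, chemicals were tested in duplicate over an 8-point range from 100 uM on HepaRG cells for 48 h; qRT-PCR signals were normalised to ACTB, GAPDH and POLR2A.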

[9] = read-out: growth arrest and DNA damage 45 (GADD45G), GADD45G (gene 10912); assay: LTEA_HepaRG_GADD45G: Life Technologies and Expression Analysis (LTEA) Assay for growth arrest and DNA damage 45 (GADD45G) using HepaRG (AID 2283499); settings: actives raise or lower the signal; mRNA level, 48 h
Outline: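 HepaRG, 48 h exposure, top 100 uM, half-log 8-point series, 0.5% DMSO vehicle, duplicates. Readout: GADD45G transcript by qRT-PCR (Fluidigm array), housekeeping-normalised (ACTB/GAPDH/POLR2A). Bidirectional curve fit vs DMSO baseline.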

[10] = read-out: Transforming Growth Factor (TGFB1), TGFB1 (gene 7040); assay: LTEA_HepaRG_TGFB1: Life Technologies and Expression Analysis (LTEA) Assay for Transforming Growth Factor (TGFB1) Transporter using HepaRG (AID 2283533); settings: actives raise or lower the signal; mRNA level, 48 h
Outline: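 qRT-PCR readout of TGFB1 transcript in HepaRG lysates, normalized to three housekeeping genes; gain or loss of signal fitted relative to 0.5% DMSO vehicle. Exposure: 48 h, 8-point curve from 100 uM, duplicate wells.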

[11] = read-out: Apolipoprotein A-V (APOA5) gene, APOA5 (gene 116519); assay: LTEA_HepaRG_APOA5: Life Technologies and Expression Analysis (LTEA) Assay for Apolipoprotein A-V (APOA5) gene using HepaRG (AID 2283474); settings: actives raise or lower the signal; mRNA level, 48 h
Outline: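 HepaRG, 48 h chemical exposure in serum-free induction medium, 8-pt half-log series (top 100 uM), 0.5% DMSO vehicle, duplicates. Readout: APOA5 mRNA by qRT-PCR, housekeeping-normalized; bidirectional fit vs DMSO baseline.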

[12] = read-out: Alkaline Phosphatase, Placental (ALPP) gene, ALPP (gene 250); assay: LTEA_HepaRG_ALPP: Life Technologies and Expression Analysis (LTEA) Assay for Alkaline Phosphatase, Placental (ALPP) gene using HepaRG (AID 2283468); settings: actives raise or lower the signal; mRNA level, 48 h
Outline: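 qRT-PCR readout of ALPP mRNA (Fluidigm TaqMan), normalized to ACTB/GAPDH/POLR2A, after 48 h chemical exposure of HepaRG cells; 8-point half-log series, top 100 uM, 0.5% DMSO vehicle. Bidirectional curve fit versus DMSO baseline.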

[13] = read-out: matrix metalloproteinase-3 (MMP3), MMP3 (gene 4314); assay: LTEA_HepaRG_MMP3: Life Technologies and Expression Analysis (LTEA) Assay for matrix metalloproteinase-3 (MMP3) using HepaRG (AID 2283519); settings: actives raise or lower the signal; mRNA level, 48 h
Outline: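 Fluidigm-based TaqMan qRT-PCR, normalized to ACTB, GAPDH and POLR2A and fitted bidirectionally versus 0.5% DMSO, measured transcript levels. Treatment: duplicate 48 h exposures of HepaRG cells, ~100,000/well, to eight half-log concentrations topping at 100 uM.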

[14] = read-out: X-box binding protein 1 (XBP1), XBP1 (gene 7494); assay: LTEA_HepaRG_XBP1: Life Technologies and Expression Analysis (LTEA) Assay for X-box binding protein 1 (XBP1) using HepaRG (AID 2283540); settings: actives raise or lower the signal; mRNA level, 48 h
Outline: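 HepaRG, 48 h exposure, 8-pt half-log CRC top 100 uM, 0.5% DMSO vehicle, duplicates. Readout: TaqMan qRT-PCR of XBP1 mRNA, housekeeping-normalised (ACTB/GAPDH/POLR2A); bidirectional fit vs DMSO baseline.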

[15] = Tanguay_ZF_120hpf_SOMI_legacy: (Legacy) Oregon State University Tanguay Lab 120 Hour Post-fertilization zebrafish Assay for Somite Malformation (AID 2283647; active = hit-call score of the fitted dose curve at least 0.9, where 1 is the maximum)
Outline: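 Binary brightfield scoring of somite defects at 120 hpf in 5D wild-type larvae; one dechorionated embryo per well, static exposure from 6 hpf, 28C, sealed and dark. Final DMSO 0.64%; trimethyltin chloride 5uM positive control.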

Measured: outcome

CCCCN(CC)c1c([N+](=O)[O-])cc(C(F)(F)F)cc1[N+](=O)[O-]
inactive: [1]

O=C(O)c1nc(Cl)ccc1Cl
inactive: [2] | [3] | [4] | [5]

CCSC(=O)N(CC)C1CCCCC1
inactive: [6] | [7] | CYP2C8 (gene 1558) | [8] | [9] | [10]

COC(=O)C=C(C)OP(=O)(OC)OC
inactive: [11]

CC(C1CC1)C(O)(Cn1cncn1)c1ccc(Cl)cc1 (stereo unspecified)
inactive: [12] | [13] | [14] | [15]
